Paper PMC8376253
No constants are given. Whether binding was seen depends on the method and setting. For some of these results: Binding seen in cells or lysates may run through a third protein. Some binding calls cover weakened binding; strength is not graded here. Tags and fused reporters may be left off the sequences shown.

T1: V5-tagged mouse Naa15 (pcDNA3.1/V5-His-mNaa15) (mouse) (UniProt Q80UM3)
T1 sequence: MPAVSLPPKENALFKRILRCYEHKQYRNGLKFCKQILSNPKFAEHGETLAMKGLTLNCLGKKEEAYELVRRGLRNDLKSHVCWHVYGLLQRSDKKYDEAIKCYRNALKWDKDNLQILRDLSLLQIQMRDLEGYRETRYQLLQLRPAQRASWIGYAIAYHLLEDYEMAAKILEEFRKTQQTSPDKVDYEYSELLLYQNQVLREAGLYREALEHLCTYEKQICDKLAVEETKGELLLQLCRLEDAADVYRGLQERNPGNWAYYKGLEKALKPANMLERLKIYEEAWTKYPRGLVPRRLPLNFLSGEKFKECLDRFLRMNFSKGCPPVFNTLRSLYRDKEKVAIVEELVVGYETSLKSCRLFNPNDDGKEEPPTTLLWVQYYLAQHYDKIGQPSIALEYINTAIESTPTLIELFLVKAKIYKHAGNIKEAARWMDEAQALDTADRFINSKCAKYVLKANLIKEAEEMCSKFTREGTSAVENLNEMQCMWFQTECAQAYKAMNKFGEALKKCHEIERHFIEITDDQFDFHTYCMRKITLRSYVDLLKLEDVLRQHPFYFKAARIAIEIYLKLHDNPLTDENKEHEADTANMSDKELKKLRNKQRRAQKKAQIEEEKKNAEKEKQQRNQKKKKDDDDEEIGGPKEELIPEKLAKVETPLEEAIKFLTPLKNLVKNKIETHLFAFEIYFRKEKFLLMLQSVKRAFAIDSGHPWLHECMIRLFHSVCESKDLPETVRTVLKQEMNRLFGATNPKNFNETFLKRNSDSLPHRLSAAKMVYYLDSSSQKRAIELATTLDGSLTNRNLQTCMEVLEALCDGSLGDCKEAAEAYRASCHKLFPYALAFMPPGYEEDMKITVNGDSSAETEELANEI

T2: full-length human Naa15, N-terminally 6xHis-tagged (human) (UniProt Q9BXJ9)
T2 sequence: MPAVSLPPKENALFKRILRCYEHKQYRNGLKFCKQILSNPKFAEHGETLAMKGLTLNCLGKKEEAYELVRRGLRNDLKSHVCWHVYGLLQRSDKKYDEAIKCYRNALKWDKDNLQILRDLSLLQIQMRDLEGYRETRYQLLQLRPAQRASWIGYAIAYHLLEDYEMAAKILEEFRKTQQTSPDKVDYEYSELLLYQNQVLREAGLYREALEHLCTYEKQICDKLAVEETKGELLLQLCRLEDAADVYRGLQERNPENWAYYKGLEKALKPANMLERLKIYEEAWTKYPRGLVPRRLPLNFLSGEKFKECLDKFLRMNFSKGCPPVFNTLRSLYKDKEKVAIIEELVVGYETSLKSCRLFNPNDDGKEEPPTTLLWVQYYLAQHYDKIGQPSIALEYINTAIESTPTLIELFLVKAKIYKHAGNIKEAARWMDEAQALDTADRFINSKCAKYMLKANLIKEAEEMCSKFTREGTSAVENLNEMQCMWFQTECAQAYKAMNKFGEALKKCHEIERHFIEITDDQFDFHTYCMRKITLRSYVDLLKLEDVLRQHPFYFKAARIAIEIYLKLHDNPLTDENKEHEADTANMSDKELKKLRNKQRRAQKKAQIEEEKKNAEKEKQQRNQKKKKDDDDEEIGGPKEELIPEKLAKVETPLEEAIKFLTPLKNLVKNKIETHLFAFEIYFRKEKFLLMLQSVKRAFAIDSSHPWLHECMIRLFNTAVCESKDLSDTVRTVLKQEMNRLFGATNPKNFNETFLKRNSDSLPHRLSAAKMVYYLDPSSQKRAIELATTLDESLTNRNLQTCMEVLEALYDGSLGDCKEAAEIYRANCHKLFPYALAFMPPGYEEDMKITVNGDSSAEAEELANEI


How the values were obtained:
[1] = target: T1, V5-tagged mouse Naa15 (pcDNA3.1/V5-His-mNaa15) (mouse); assay: co-IP; HEK293 cells co-transfected with V5-His-mNaa15 and a 3xFLAG-tagged catalytic subunit, lysed after 48 hr in PBS-X; 1 µg anti-V5 antibody, 1 hr at 4°C, protein-A Sepharose; western blot
[2] = target: T2, full-length human Naa15, N-terminally 6xHis-tagged (human); assay: SEC; mNaa12 (1-160) and 6xHis-hNaa15 co-expressed in Sf9; complex purified by nickel resin, SP ion exchange and Superdex 200 size exclusion (25 mM HEPES pH 7.0, 200 mM NaCl, 1 mM TCEP, 4°C); fractions on silver-stained SDS-PAGE; both purified

Binder	binding [1]	binding [2]
3xFLAG-tagged mouse Naa10 isoform 1 (p3xFLAG-CMV10-Naa10^235) (protein, UniProt Q9QY36 1-235) MNIRNARPEDLMNMQHCNLLCLPENYQMKYYFYHGLSWPQLSYIAEDENGKIVGYVLAKMEEDPDDVPHGHITSLAVKRSHRRLGLAQKLMDQASRAMIENFNAKYVSLHVRKSNRAALHLYSNTLNFQISEVEPKYYADGEDAYAMKRDLTQMADELRRHLELKEKGKHMVLAALENKAENKGNVLLSSGEACREEKGLAAEDSGGDSKDLSEVSETTESTDVKDSSEASDSAS	binds	
3xFLAG-tagged mouse Naa11 (p3xFLAG-CMV10-Naa11) (protein, UniProt Q3UX61 1-218) MNIRNARPDDLMNMQHCNLLCLPENYQMKYYFYHGLSWPQLSYIAEDEDGKIVGYVLAKMEEDPDDVPHGHITSLAVKRSHRRLGLAQKLMDQASRAMIENFGAKYVSLHVRKSNRAALHLYSNTLNFQVSEVEPKYYADGEDAYAMKRDLSQMTDELRRQLVLKKNRYVVLGSEETQGGTLPDAGEACLPKNPTSKDSGSSDSTDVQDSSEDLDSIS	binds	
3xFLAG-tagged mouse Naa12 (p3xFLAG-CMV10-Naa12) (protein, UniProt Q9CQX6 1-220) MNIRRARPDDLMNMQHCNLLCLPENYQMKYYFYHGLSWPQLSYIAEDEDGKIVGYVLAKMEEDPDDVPHGHITSLAVKRSHRRLGLAQKLMDQASRAMIENFSAKYVSLHVRKSNRAALHLYSNTLNFQVSEVEPKYYADGEDAYAMKRDLSQMADELRRQLVLKKGRYVVLGSKENQGSTLPGSEEASQQENLAGGDSGSDGKDSTDVQDSLQTLGSAS	binds	
truncated mouse Naa12 (residues 1-160) (domain or fragment, UniProt Q9CQX6 1-160) MNIRRARPDDLMNMQHCNLLCLPENYQMKYYFYHGLSWPQLSYIAEDEDGKIVGYVLAKMEEDPDDVPHGHITSLAVKRSHRRLGLAQKLMDQASRAMIENFSAKYVSLHVRKSNRAALHLYSNTLNFQVSEVEPKYYADGEDAYAMKRDLSQMADELRR		binds
